Measured values taken from US20140315215A1.
These are yes or no findings as the source states them, for the method shown. Some binding calls cover weakened binding; strength is not graded here. Where a sequence is shown, tags or fusion partners need not be part of it.

Key:
[1] = target: hen egg lysozyme (hen) (UniProt P00698); assay: ELISA on immobilised HEL, tAK activity (luminescence) as read-out, BSA as background control
[2] = target: hen egg lysozyme (hen) (UniProt P00698); assay: ELISA: plate coated with 10 ug/ml HEL, probed with heat-treated 10 ug/ml fusion, tAK luminescence read-out
[3] = target: hen egg lysozyme (hen) (UniProt P00698); assay: ELISA: HEL dilutions 5-500 nM coated on Maxisorp plate, probed with 10 ug/ml fusion, tAK luminescence read-out
[4] = target: hen egg lysozyme (hen) (UniProt P00698); assay: ELISA: HEL dilutions on Maxisorp plate, probed with fusion treated with 0, 1, 4 or 8M urea; limits of detection unchanged

binding [1]: binds
binding [2]: binds
binding [3]: binds
binding [4]: binds
B1: SacAK-F3-VNAR fusion protein (Sulfolobus acidocaldarius adenylate kinase, [GGGGS]3 flexible linker F3, hen egg lysozyme specific shark VNAR) (VNAR)
chain: MLATALKLGYAKDRDEMRKLSVEKQKKLQIDAAKGIAEEARAGGEGYLFIDTHAVIRTPSGYLPGLPSYVITEINPSVIFLLEADPKIILSRQKRDTTRNRNDYSDESVILETINFARYAATASAVLAGSTVKVIVNVEGDPSIAANEIIRSMKQSTGGGGSGGGGSGGGGSGSARVDQTPRSVTKETGESLTINCVLRDASYALGSTCWYRKKSGSTNEESISKGGRYVETVNSGSKSFSLRINDLTVEDGGTYRCGLGVAGGYCDYALCSSRYAECGDGTAVTVN
